# The list shows a part of the results. The data scatter; read single values as rough.
# How the values were obtained:
# Settings in all cases: 10 µM
# [1] = test system: Plasmodium vivax liver stage (primary human hepatocyte culture); experiment: hypnozoite quantity inhibition (% inhibition); higher = more active against hypnozoites
# [2] = test system: Plasmodium vivax liver stage (primary human hepatocyte culture); experiment: schizont net growth area inhibition (% inhibition); higher = more active against liver schizonts
# [3] = test system: primary human hepatocytes; experiment: hepatic nuclei reduction relative to DMSO (100 - % of negative control); higher = more toxic to hepatocytes
# [4] = assay mode: Prophylactic (treated before or shortly after infection), fixed day 6 post-infection
# [5] = assay mode: Radical Cure (treated from day 5 post-infection for 3 days), fixed day 8 post-infection
Compound,"hypnozoite quantity inhibition [1, 4]","hypnozoite quantity inhibition [1, 5]","schizont net growth area inhibition [2, 4]","schizont net growth area inhibition [2, 5]","hepatic nuclei reduction [3, 4]","hepatic nuclei reduction [3, 5]"
CN1CCC(c2cc(-c3ccncc3)c(-c3ccc(F)cc3)[nH]2)CC1,48,-4,18.6,14,17%,8%
N#Cc1nc(-c2ccccc2)oc1S(=O)(=O)c1ccc(Cl)cc1,-21,-41,38.6,-42.9,5%,6%
COc1cccc(C2(C)Nc3ccccc3-c3nc4ccccc4n32)c1 (centres undefined),-8.8,37.4,10.7,19.8,-1%,-2%
Cc1sc2ncnc(Sc3nc4ccccc4[nH]3)c2c1C,94.6,81.7,103,86.6,-9%,-2%
Cc1ccc(Oc2ccc(NC(=O)CNc3ccccc3N3CCCC3=O)cc2)cc1,11,-38,-25.1,-25.7,-3%,3%
O=C(Nc1nc(-c2ccccn2)cs1)c1cncn1-c1ccccc1,-28,-33,102,0.8,10%,1%
CC1CCC2C(C)C(O)OC3OC4(C)CCC1C32O4 (centres undefined),14,-9,-17.4,-68,-6%,-5%
Nc1ncnc2c1c(Cc1cccc3ccccc13)nn2CC1CCNCC1,-13,55,-75.4,47.2,1%,4%
CC(C)(C)c1ccc(C2CC3=Nc4ccccc4N(C(=O)c4ccccc4Cl)C(c4ccc(F)cc4)C3=C(O)C2)cc1 (centres undefined),18.8,38.2,-3.9,-62,-8%,4%
Oc1ccc(-c2nc(-c3ccc4oc5ccc(-c6[nH]c(-c7ccc(O)cc7)nc6-c6ccccc6)cc5c4c3)c(-c3ccccc3)[nH]2)cc1,-23.6,35.9,-38.1,88.8,-4%,-1%
CN(C)c1ccc2nc3ccc(=[N+](C)C)cc-3sc2c1,-24,20,-37.6,-0.4,-12%,0%
Cc1cc(Cl)ccc1NC(=O)CCc1ccc(S(=O)(=O)NCC(C)C)cc1,-51,-24,-74.1,26.4,-8%,-5%
Nc1nccc2ccc(Oc3ccncc3)cc12,-81,9,29.1,80.2,-8%,2%
c1ccc(CNc2nc(Nc3ccccc3)nc3ccccc23)cc1,21,17.6,23.8,-6.7,-11%,0%
CCCCCCC[C@H]1CN[C@H](C(=O)NC(C(C)Cl)C2O[C@H](SC)[C@H](O)[C@@H](O)[C@H]2O)C1 (some centres undefined),-29,47,26,75.9,3%,-6%
COc1ccccc1CNC(=O)c1cc(C2CC2)nc2c1cnn2C(C)C,24,-4,-15.2,-117,-6%,0%
O=C1COCc2ccc(Br)cc2N1Cc1ccc(C(F)(F)F)cc1,-15,7,-1.9,-28.5,0%,-10%
COc1ccc(CCNC(=O)c2cc(S(=O)(=O)N3CC(C)CC(C)C3)ccc2Sc2ccc(F)cc2)cc1OC (centres undefined),21,17.6,-42.6,-58.7,0%,-2%
COc1cccc(CC(=O)N2CCC(n3c(C)nc4ccc(F)cc43)CC2)c1,34,-18,74.3,-20,6%,4%

Compound,"hypnozoite quantity inhibition [1, 4]","hypnozoite quantity inhibition [1, 5]","schizont net growth area inhibition [2, 4]","schizont net growth area inhibition [2, 5]","hepatic nuclei reduction [3, 4]","hepatic nuclei reduction [3, 5]"
CN(C)c1ccc(-c2nc3cc(N)ccc3[nH]2)cc1,79.6,4.7,88,-17.7,2%,3%
O=C1C(O)=C([C@H]2CC[C@H](c3ccc(Cl)cc3)CC2)C(=O)c2ccccc21,-24,7,58.3,51.4,-6%,-3%
Oc1ccc2ccccc2c1CNc1nc2ccccc2[nH]1,13.3,40.1,-6.3,27.3,1%,-3%
CCC(=O)Nc1ccccc1C(=O)Nc1ccccn1,20,3,-24.7,-138,-9%,9%
Cc1cc(NCCN2CCCCC2)c2ccc3ccccc3c2n1,-8,35.9,-94.6,20.1,2%,4%
CCCCOc1ccc(C(=O)Nc2cc(C)on2)cc1,-19.9,40.5,-65,41.2,-11%,17%
COc1cc(OC)cc(C(=O)Nc2ccc(-c3nc4ccccc4[nH]3)cc2)c1,,,,,-14%,7%
CCCc1c(C)nc2ccc(Br)cc2c1O,3.8,1.9,67.9,-12.4,3%,-2%
CC1CCCC(CC2Cc3cc(O)cc(O)c3C(=O)O2)O1 (centres undefined),-55,7,4.6,32.3,1%,-3%
COC(=O)c1c(NC(=O)c2cc3ccccc3oc2=O)sc2c1CCN(Cc1ccccc1)C2,21,16,43.5,-61.7,-3%,-6%
CCOC(=O)c1cnc2ccc(OC)cc2c1NCc1ccccc1,11.4,-0.8,26.2,-25,-2%,-4%
O=C(Nc1ccc(F)c(Cl)c1)Nc1ccc(Cl)c(Cl)c1,7.6,51,34.5,-0.4,5%,-5%
OC1CCCCC1C1(NC(=S)Nc2ccccc2)CCCCC1 (centres undefined),37.9,15.6,92.4,-26.8,-6%,3%
CCc1nc2ccccc2n1CC(O)COc1cc(C)ccc1Cl (centres undefined),-14,14,18.2,-28.6,-2%,11%
COc1ccc(C2=NN(C3CCCCCC3)C(=O)C2(C)C)cc1OCc1ccccn1,,,,,0%,-5%
CC(C)(C)C(=O)Nc1ccc(C(=O)Nc2cccc(-c3nc4ccccc4[nH]3)c2)cc1,-2,40.5,96,54.3,3%,-3%
NCCCC(N)(C(=O)O)C(F)F (centres undefined),41,11,5.1,16.2,-3%,-5%
CNC(=O)c1nn(C)c2c1C(C)(C)Cc1cnc(Nc3ccc(N4CCN(C)CC4)cc3)nc1-2,31,-12,102,45.6,26%,18%

# 2 records picked at random from the list so far, as already listed:
Compound,"hypnozoite quantity inhibition [1, 4]","hypnozoite quantity inhibition [1, 5]","schizont net growth area inhibition [2, 4]","schizont net growth area inhibition [2, 5]","hepatic nuclei reduction [3, 4]","hepatic nuclei reduction [3, 5]"
O=C(Nc1ccc(F)c(Cl)c1)Nc1ccc(Cl)c(Cl)c1,7.6,51,34.5,-0.4,5%,-5%
O=C1C(O)=C([C@H]2CC[C@H](c3ccc(Cl)cc3)CC2)C(=O)c2ccccc21,-24,7,58.3,51.4,-6%,-3%

# From the supplement of paper PMC8497498
